Experimental data taken from publication PMC9066967.
No constants are given. Whether binding was seen depends on the method and setting. Binding seen in cells or lysates may run through a third protein. Some results given as binding are weak or reduced against the parent protein; the word gives no strength.

Target: p53 (human (endogenous in Beas-2B)) (UniProt P04637)
Test: co-IP; endogenous proteins in lysate of Beas-2B cells treated with CSE for 4 h; which antibody precipitated and which detected is not told

B1: Retinoid-related orphan receptor-α (protein, UniProt P35398 1-523)
chain: MESAPAAPDPAASEPGSSGADAAAGSRETPLNQESARKSEPPAPVRRQSYSSTSRGISVTKKTHTSQIEIIPCKICGDKSSGIHYGVITCEGCKGFFRRSQQSNATYSCPRQKNCLIDRTSRNRCQHCRLQKCLAVGMSRDAVKFGRMSKKQRDSLYAEVQKHRMQQQQRDHQQQPGEAEPLTPTYNISANGLTELHDDLSNYIDGHTPEGSKADSAVSSFYLDIQPSPDQSGLDINGIKPEPICDYTPASGFFPYCSFTNGETSPTVSMAELEHLAQNISKSHLETCQYLREELQQITWQTFLQEEIENYQNKQREVMWQLCAIKITEAIQYVVEFAKRIDGFMELCQNDQIVLLKAGSLEVVFIRMCRAFDSQNNTVYFDGKYASPDVFKSLGCEDFISFVFEFGKSLCSMHLTEDEIALFSAFVLMSADRSWLQEKVKIEKLQQKIQLALQHVLQKNHREDGILTKLICKVSTLRALCGRHTEKLMAFKAIYPDIVRLHFPPLYKELFTSEFEPAMQIDG
binding: binds
